Measurements taken from paper PMC10850815.
Results are given in words; binding and its absence hold for the method and conditions named. Binding seen in cells or lysates may run through a third protein. A yes stands for co-enrichment or nearness to the bait. Other partners may have been found.

Sequences of proteins named here, by UniProt entry; tags and fusion partners are left off. Residues count along the entry.
UniProt Q9NZQ7, residues 19-290: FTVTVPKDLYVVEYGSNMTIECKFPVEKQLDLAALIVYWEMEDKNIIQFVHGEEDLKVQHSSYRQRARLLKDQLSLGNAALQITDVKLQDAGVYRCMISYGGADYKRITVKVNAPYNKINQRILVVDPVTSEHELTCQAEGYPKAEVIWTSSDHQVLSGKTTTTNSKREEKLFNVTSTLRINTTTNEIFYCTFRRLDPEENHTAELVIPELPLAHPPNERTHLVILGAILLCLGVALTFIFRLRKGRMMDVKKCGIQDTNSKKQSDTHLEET
UniProt O75367: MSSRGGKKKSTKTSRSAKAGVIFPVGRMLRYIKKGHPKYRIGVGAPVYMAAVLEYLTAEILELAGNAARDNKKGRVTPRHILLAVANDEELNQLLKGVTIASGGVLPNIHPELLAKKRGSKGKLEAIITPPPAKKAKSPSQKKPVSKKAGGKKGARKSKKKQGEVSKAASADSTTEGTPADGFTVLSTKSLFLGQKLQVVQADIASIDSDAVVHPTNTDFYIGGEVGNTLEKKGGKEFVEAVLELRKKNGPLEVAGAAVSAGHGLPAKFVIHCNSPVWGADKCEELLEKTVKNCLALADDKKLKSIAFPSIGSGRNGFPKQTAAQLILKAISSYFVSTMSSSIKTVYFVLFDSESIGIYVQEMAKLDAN
UniProt P38919: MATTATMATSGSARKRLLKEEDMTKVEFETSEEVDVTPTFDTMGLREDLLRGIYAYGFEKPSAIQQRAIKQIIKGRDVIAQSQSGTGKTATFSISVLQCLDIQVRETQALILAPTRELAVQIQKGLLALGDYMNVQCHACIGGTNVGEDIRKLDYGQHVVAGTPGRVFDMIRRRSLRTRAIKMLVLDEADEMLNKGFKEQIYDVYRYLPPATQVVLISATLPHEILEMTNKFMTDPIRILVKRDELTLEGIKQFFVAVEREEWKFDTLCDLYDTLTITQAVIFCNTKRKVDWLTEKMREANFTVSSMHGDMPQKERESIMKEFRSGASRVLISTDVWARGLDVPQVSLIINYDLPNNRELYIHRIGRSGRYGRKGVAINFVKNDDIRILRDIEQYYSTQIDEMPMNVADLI

B1: cleavage stimulation factor subunit 1 (protein, UniProt Q05048 1-431)
chain: MYRTKVGLKDRQQLYKLIISQLLYDGYISIANGLINEIKPQSVCAPSEQLLHLIKLGMENDDTAVQYAIGRSDTVAPGTGIDLEFDADVQTMSPEASEYETCYVTSHKGPCRVATYSRDGQLIATGSADASIKILDTERMLAKSAMPIEVMMNETAQQNMENHPVIRTLYDHVDEVTCLAFHPTEQILASGSRDYTLKLFDYSKPSAKRAFKYIQEAEMLRSISFHPSGDFILVGTQHPTLRLYDINTFQCFVSCNPQDQHTDAICSVNYNSSANMYVTGSKDGCIKLWDGVSNRCITTFEKAHDGAEVCSAIFSKNSKYILSSGKDSVAKLWEISTGRTLVRYTGAGLSGRQVHRTQAVFNHTEDYVLLPDERTISLCCWDSRTAERRNLLSLGHNNIVRCIVHSPTNPGFMTCSDDFRARFWYRRSTTD
B2: non‐POU domain containing octamer binding (protein, UniProt Q15233 1-471)
chain: MQSNKTFNLEKQNHTPRKHHQHHHQQQHHQQQQQQPPPPPIPANGQQASSQNEGLTIDLKNFRKPGEKTFTQRSRLFVGNLPPDITEEEMRKLFEKYGKAGEVFIHKDKGFGFIRLETRTLAEIAKVELDNMPLRGKQLRVRFACHSASLTVRNLPQYVSNELLEEAFSVFGQVERAVVIVDDRGRPSGKGIVEFSGKPAARKALDRCSEGSFLLTTFPRPVTVEPMDQLDDEEGLPEKLVIKNQQFHKEREQPPRFAQPGSFEYEYAMRWKALIEMEKQQQDQVDRNIKEAREKLEMEMEAARHEHQVMLMRQDLMRRQEELRRMEELHNQEVQKRKQLELRQEEERRRREEEMRRQQEEMMRRQQEGFKGTFPDAREQEIRMGQMAMGGAMGINNRGAMPPAPVPAGTPAPPGPATMMPDGTLGLTPPTTERFGQAATMEGIGAIGGTPPAFNRAAPGAEFAPNKRRRY

Target: programmed cell death 1 ligand 1 (PD‐L1) (human (endogenous in PCI 52 and FaDu)) (UniProt Q9NZQ7)
Assay: affinity purification with mass spectrometry; CoIP of endogenous PD‐L1 with anti‐PD‐L1 (E1L3N) and Protein A MicroBeads from 100 μg protein per nuclear fraction (nuclear soluble, nuclear chromatin‐bound) of FaDu and PCI 52, then LC–MS; proteins captured with the IgG isotype control excluded

Molecule	binding
macroH2A.1 histone (from UniProt O75367 1-369)	binds
EIF4A3 (from UniProt P38919 1-411)	binds
B1	binds
B2	binds
